PubChem BioAssay AID652248, Drosophila RNAi Screening Center – 2013
The deposit covers 863 reagents; this is an unselected part. In the full data, 32 (3.7%) were called active. 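Calls also used reproducibility and a similarity ranking whose scores are not deposited; many active genes show only modest elongated scores.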 Unmarked entries are inactive. Not all columns of the deposit are shown. Not stated in the record: the amount of reagent, the time to read-out.

Purpose: 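Genes that govern switching among distinct shape types in fly blood cells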 (primary screen)
Cell system: cultured Drosophila hemocytes
Knock-down reagent: long dsRNA against Drosophila genes
Detection: 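Automated microscopy of stained actin, tubulin and nuclei; single-cell shape measures assigned to five reference shape types, giving a score per dsRNA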
Direction: elongated score: higher = more elongated bipolar cells
Rule for the call: 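Hits show a significant increase of elongated cells; higher rank given where elongated cells rose as other shape types fell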

Against Doa (GeneID 43415) [DRSC13892], the entry reads elongated score, rep 1 = -0.53.
After knock-down of Doa (GeneID 43415) [DRSC13893], the screen gave elongated score, rep 1 = 0.16.
Depletion of Doa (GeneID 43415) [DRSC13896] came out at: elongated score, rep 1 = 1.41.
Against Doa (GeneID 43415) [DRSC16650], the values are elongated score, rep 1 = 0.64.
Knock-down of CG7362 (GeneID 41787) [DRSC16236] gave: elongated score, rep 1 = 0.14.
Knock-down of CG7362 (GeneID 41787) [DRSC29548] resulted in: elongated score, rep 1 = 2.78.
For Pi4KIIIalpha (GeneID 31247) [DRSC18655] the deposit lists elongated score, rep 1 = -0.53.
P58IPK (GeneID 41161) [DRSC16404] gave elongated score, rep 1 = 0.46.
Silencing of P58IPK (GeneID 41161) [DRSC27012] gave: elongated score, rep 1 = -0.26.
Against Pask (GeneID 37824) [DRSC04337], the values are elongated score, rep 1 = 0.02.
Against Pask (GeneID 37824) [DRSC28829] the deposit lists elongated score, rep 1 = 2.29.
Against rg (GeneID 44531) [DRSC17726] the deposit lists elongated score, rep 1 = 0.08; elongated score, rep 2 = -0.53.
With knock-down of rg (GeneID 44531) [DRSC29144], the record shows elongated score, rep 1 = 3.47.
Knock-down of tkv (GeneID 33753) [DRSC03623] gave: elongated score, rep 1 = -0.53.
For tkv (GeneID 33753) [DRSC22606], the values are elongated score, rep 1 = -0.53.
tkv (GeneID 33753) [DRSC25957] showed elongated score, rep 1 = -0.53.
AMPKalpha (GeneID 43904) [DRSC18714] scored elongated score, rep 1 = 0.66; elongated score, rep 2 = 0.31.
AMPKalpha (GeneID 43904) [DRSC28055] gave elongated score, rep 1 = -0.53.
With knock-down of wnd (GeneID 40143) [DRSC09626], the record shows elongated score, rep 1 = -0.53.
Against wnd (GeneID 40143) [DRSC11046], the values are elongated score, rep 1 = 0.59.
After knock-down of wnd (GeneID 40143) [DRSC21373], the record shows elongated score, rep 1 = 0.06.
Csk (GeneID 41398) [DRSC23272] showed elongated score, rep 1 = 0.39.
Against Csk (GeneID 41398) [DRSC26697], the values are elongated score, rep 1 = 0.31.
With knock-down of Pdp (GeneID 31683) [DRSC17825] the results were elongated score, rep 1 = 1.81; elongated score, rep 2 = 0.04.
Pdp (GeneID 31683) [DRSC26725] gave elongated score, rep 1 = 0.08.

Laid out differently: results already given.
gene knocked down,DRSC id,"elongated score, rep 1","elongated score, rep 2"
rg (GeneID 44531),DRSC17726,0.08,-0.53
rg (GeneID 44531),DRSC29144,3.47,
tkv (GeneID 33753),DRSC03623,-0.53,
